{"source": "PubChem BioAssay AID1259308 (NCATS, 2017)", "test": "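Candidate targets for better recombinant protein yield in mammalian cells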 (primary screen)", "cells": "human HEK293 embryonic kidney cells stably expressing firefly luciferase (HEK-CMV-Luc2-Hygro)", "reagents": "single siRNA against human genes, 0.8 pmol siRNA per well", "timing": "72 h", "read-out": "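Luciferase light (ONE-Glo) measured on one replicate plate set and viability (CellTiter-Glo) on the other, scaled to a negative control siRNA, with robust z-scores and luciferase per cell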", "reading the numbers": "total luciferase, z-score and total luciferase, % of control: higher = more reporter protein produced", "rule for the call": "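An siRNA counts as active if its total luciferase robust z-score exceeds 3; genes with two or more such siRNAs out of three were retested with fresh siRNAs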", "calls": "active = raised luciferase; inactive = no rise", "note": "The deposit covers about 59,000 reagents; below is a random part of them. About 1,510 of them (2.6%) count as active. 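Calls use total luciferase alone and ignore viability, so some active siRNAs may act by altering cell number.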 The numbers tell different reagents against one gene apart. Not all columns of the deposit are shown. No sequences are given here."}
{"Target gene": "AQP5", "siRNA no.": 1, "total luciferase, z-score": -2.28, "total luciferase, % of control": 36.5, "activity call": "inactive"}
{"Target gene": "AQP5", "siRNA no.": 2, "total luciferase, z-score": 0.114, "total luciferase, % of control": 84.2, "activity call": "inactive"}
{"Target gene": "AQP5", "siRNA no.": 3, "total luciferase, z-score": 0.232, "total luciferase, % of control": 86.5, "activity call": "inactive"}
{"Target gene": "OR6C76", "siRNA no.": 1, "total luciferase, z-score": -0.172, "total luciferase, % of control": 78.5, "activity call": "inactive"}
{"Target gene": "OR6C76", "siRNA no.": 2, "total luciferase, z-score": -0.817, "total luciferase, % of control": 65.6, "activity call": "inactive"}
{"Target gene": "OR6C76", "siRNA no.": 3, "total luciferase, z-score": -0.206, "total luciferase, % of control": 77.8, "activity call": "inactive"}
{"Target gene": "LUZP1", "siRNA no.": 1, "total luciferase, z-score": -0.419, "total luciferase, % of control": 73.5, "activity call": "inactive"}
{"Target gene": "LUZP1", "siRNA no.": 2, "total luciferase, z-score": 0.603, "total luciferase, % of control": 93.9, "activity call": "inactive"}
{"Target gene": "LUZP1", "siRNA no.": 3, "total luciferase, z-score": 0.918, "total luciferase, % of control": 100, "activity call": "inactive"}
{"Target gene": "FAM178B", "siRNA no.": 1, "total luciferase, z-score": 0.157, "total luciferase, % of control": 85, "activity call": "inactive"}
{"Target gene": "FAM178B", "siRNA no.": 2, "total luciferase, z-score": 1.63, "total luciferase, % of control": 114, "activity call": "inactive"}
{"Target gene": "FAM178B", "siRNA no.": 3, "total luciferase, z-score": 0.374, "total luciferase, % of control": 89.3, "activity call": "inactive"}
{"Target gene": "PUS7", "siRNA no.": 1, "total luciferase, z-score": 2.01, "total luciferase, % of control": 122, "activity call": "inactive"}
{"Target gene": "PUS7", "siRNA no.": 2, "total luciferase, z-score": 0.934, "total luciferase, % of control": 100, "activity call": "inactive"}
{"Target gene": "PUS7", "siRNA no.": 3, "total luciferase, z-score": 0.329, "total luciferase, % of control": 88.4, "activity call": "inactive"}
{"Target gene": "VDAC3", "siRNA no.": 1, "total luciferase, z-score": -0.129, "total luciferase, % of control": 79.3, "activity call": "inactive"}
{"Target gene": "VDAC3", "siRNA no.": 2, "total luciferase, z-score": -0.718, "total luciferase, % of control": 67.6, "activity call": "inactive"}
{"Target gene": "VDAC3", "siRNA no.": 3, "total luciferase, z-score": -0.0176, "total luciferase, % of control": 81.5, "activity call": "inactive"}
{"Target gene": "MBNL1", "siRNA no.": 1, "total luciferase, z-score": -0.528, "total luciferase, % of control": 71.4, "activity call": "inactive"}
{"Target gene": "MBNL1", "siRNA no.": 2, "total luciferase, z-score": -0.311, "total luciferase, % of control": 75.7, "activity call": "inactive"}
{"Target gene": "MBNL1", "siRNA no.": 3, "total luciferase, z-score": 0.704, "total luciferase, % of control": 95.9, "activity call": "inactive"}
{"Target gene": "GDF2", "siRNA no.": 1, "total luciferase, z-score": 0.575, "total luciferase, % of control": 93.3, "activity call": "inactive"}
{"Target gene": "GDF2", "siRNA no.": 2, "total luciferase, z-score": 0.246, "total luciferase, % of control": 86.8, "activity call": "inactive"}
{"Target gene": "GDF2", "siRNA no.": 3, "total luciferase, z-score": 1.71, "total luciferase, % of control": 116, "activity call": "inactive"}

The list goes on (4 carried over from the part before).
{"Target gene": "MBNL1", "siRNA no.": 3, "total luciferase, z-score": 0.704, "total luciferase, % of control": 95.9, "activity call": "inactive"}
{"Target gene": "GDF2", "siRNA no.": 1, "total luciferase, z-score": 0.575, "total luciferase, % of control": 93.3, "activity call": "inactive"}
{"Target gene": "GDF2", "siRNA no.": 2, "total luciferase, z-score": 0.246, "total luciferase, % of control": 86.8, "activity call": "inactive"}
{"Target gene": "GDF2", "siRNA no.": 3, "total luciferase, z-score": 1.71, "total luciferase, % of control": 116, "activity call": "inactive"}
{"Target gene": "PRRC1", "siRNA no.": 1, "total luciferase, z-score": -1.12, "total luciferase, % of control": 59.7, "activity call": "inactive"}
{"Target gene": "PRRC1", "siRNA no.": 2, "total luciferase, z-score": 0.086, "total luciferase, % of control": 83.6, "activity call": "inactive"}
{"Target gene": "PRRC1", "siRNA no.": 3, "total luciferase, z-score": 2.1, "total luciferase, % of control": 124, "activity call": "inactive"}
{"Target gene": "OTUD4", "siRNA no.": 1, "total luciferase, z-score": -1.45, "total luciferase, % of control": 53.1, "activity call": "inactive"}
{"Target gene": "OTUD4", "siRNA no.": 2, "total luciferase, z-score": -0.665, "total luciferase, % of control": 68.7, "activity call": "inactive"}
{"Target gene": "OTUD4", "siRNA no.": 3, "total luciferase, z-score": 0.143, "total luciferase, % of control": 84.7, "activity call": "inactive"}
{"Target gene": "APOBEC2", "siRNA no.": 1, "total luciferase, z-score": -0.826, "total luciferase, % of control": 65.5, "activity call": "inactive"}
{"Target gene": "APOBEC2", "siRNA no.": 2, "total luciferase, z-score": 0.495, "total luciferase, % of control": 91.7, "activity call": "inactive"}
{"Target gene": "APOBEC2", "siRNA no.": 3, "total luciferase, z-score": 0.674, "total luciferase, % of control": 95.3, "activity call": "inactive"}
{"Target gene": "HMGN2P24", "siRNA no.": 1, "total luciferase, z-score": -0.964, "total luciferase, % of control": 62.7, "activity call": "inactive"}
{"Target gene": "HMGN2P24", "siRNA no.": 2, "total luciferase, z-score": 3.52, "total luciferase, % of control": 152, "activity call": "active"}
{"Target gene": "HMGN2P24", "siRNA no.": 3, "total luciferase, z-score": -1.25, "total luciferase, % of control": 56.9, "activity call": "inactive"}
{"Target gene": "KCND3", "siRNA no.": 1, "total luciferase, z-score": 0.588, "total luciferase, % of control": 93.6, "activity call": "inactive"}
{"Target gene": "KCND3", "siRNA no.": 2, "total luciferase, z-score": -0.891, "total luciferase, % of control": 64.2, "activity call": "inactive"}
{"Target gene": "KCND3", "siRNA no.": 3, "total luciferase, z-score": -0.415, "total luciferase, % of control": 73.6, "activity call": "inactive"}
{"Target gene": "NPAS4", "siRNA no.": 1, "total luciferase, z-score": -0.662, "total luciferase, % of control": 68.7, "activity call": "inactive"}
{"Target gene": "NPAS4", "siRNA no.": 2, "total luciferase, z-score": 0.0673, "total luciferase, % of control": 83.2, "activity call": "inactive"}
{"Target gene": "NPAS4", "siRNA no.": 3, "total luciferase, z-score": 2.58, "total luciferase, % of control": 133, "activity call": "inactive"}
